Measured values: PubChem BioAssay AID2662 (National Center for Advancing Translational Sciences (NCATS), 2010)
The campaign covered roughly 290,000 compounds. About 110 (0.038%) were called active. The inconclusive results got no clear call from the source; some entries with a clear call stand among them for comparison. Calls follow the shape of the dose curve; as a rule, active = well fitted inhibition curve with a large enough effect in the polarisation, with a control signal flat (not every such curve was filed as active); inconclusive = small, poorly fitted or top-dose-only effect, or effect the other way, or a change in a side signal; inactive = no such curve, though single readings can be large or run the other way; the % refers to the polarisation. Where the call is inconclusive, the potency comes from a doubtful curve fit. “Side channel” marks fits to a control or component signal instead of the main read-out.

The chains behind the UniProt entries cited, without tags or fusion partners.
UniProt Q03164, whole entry, looked up: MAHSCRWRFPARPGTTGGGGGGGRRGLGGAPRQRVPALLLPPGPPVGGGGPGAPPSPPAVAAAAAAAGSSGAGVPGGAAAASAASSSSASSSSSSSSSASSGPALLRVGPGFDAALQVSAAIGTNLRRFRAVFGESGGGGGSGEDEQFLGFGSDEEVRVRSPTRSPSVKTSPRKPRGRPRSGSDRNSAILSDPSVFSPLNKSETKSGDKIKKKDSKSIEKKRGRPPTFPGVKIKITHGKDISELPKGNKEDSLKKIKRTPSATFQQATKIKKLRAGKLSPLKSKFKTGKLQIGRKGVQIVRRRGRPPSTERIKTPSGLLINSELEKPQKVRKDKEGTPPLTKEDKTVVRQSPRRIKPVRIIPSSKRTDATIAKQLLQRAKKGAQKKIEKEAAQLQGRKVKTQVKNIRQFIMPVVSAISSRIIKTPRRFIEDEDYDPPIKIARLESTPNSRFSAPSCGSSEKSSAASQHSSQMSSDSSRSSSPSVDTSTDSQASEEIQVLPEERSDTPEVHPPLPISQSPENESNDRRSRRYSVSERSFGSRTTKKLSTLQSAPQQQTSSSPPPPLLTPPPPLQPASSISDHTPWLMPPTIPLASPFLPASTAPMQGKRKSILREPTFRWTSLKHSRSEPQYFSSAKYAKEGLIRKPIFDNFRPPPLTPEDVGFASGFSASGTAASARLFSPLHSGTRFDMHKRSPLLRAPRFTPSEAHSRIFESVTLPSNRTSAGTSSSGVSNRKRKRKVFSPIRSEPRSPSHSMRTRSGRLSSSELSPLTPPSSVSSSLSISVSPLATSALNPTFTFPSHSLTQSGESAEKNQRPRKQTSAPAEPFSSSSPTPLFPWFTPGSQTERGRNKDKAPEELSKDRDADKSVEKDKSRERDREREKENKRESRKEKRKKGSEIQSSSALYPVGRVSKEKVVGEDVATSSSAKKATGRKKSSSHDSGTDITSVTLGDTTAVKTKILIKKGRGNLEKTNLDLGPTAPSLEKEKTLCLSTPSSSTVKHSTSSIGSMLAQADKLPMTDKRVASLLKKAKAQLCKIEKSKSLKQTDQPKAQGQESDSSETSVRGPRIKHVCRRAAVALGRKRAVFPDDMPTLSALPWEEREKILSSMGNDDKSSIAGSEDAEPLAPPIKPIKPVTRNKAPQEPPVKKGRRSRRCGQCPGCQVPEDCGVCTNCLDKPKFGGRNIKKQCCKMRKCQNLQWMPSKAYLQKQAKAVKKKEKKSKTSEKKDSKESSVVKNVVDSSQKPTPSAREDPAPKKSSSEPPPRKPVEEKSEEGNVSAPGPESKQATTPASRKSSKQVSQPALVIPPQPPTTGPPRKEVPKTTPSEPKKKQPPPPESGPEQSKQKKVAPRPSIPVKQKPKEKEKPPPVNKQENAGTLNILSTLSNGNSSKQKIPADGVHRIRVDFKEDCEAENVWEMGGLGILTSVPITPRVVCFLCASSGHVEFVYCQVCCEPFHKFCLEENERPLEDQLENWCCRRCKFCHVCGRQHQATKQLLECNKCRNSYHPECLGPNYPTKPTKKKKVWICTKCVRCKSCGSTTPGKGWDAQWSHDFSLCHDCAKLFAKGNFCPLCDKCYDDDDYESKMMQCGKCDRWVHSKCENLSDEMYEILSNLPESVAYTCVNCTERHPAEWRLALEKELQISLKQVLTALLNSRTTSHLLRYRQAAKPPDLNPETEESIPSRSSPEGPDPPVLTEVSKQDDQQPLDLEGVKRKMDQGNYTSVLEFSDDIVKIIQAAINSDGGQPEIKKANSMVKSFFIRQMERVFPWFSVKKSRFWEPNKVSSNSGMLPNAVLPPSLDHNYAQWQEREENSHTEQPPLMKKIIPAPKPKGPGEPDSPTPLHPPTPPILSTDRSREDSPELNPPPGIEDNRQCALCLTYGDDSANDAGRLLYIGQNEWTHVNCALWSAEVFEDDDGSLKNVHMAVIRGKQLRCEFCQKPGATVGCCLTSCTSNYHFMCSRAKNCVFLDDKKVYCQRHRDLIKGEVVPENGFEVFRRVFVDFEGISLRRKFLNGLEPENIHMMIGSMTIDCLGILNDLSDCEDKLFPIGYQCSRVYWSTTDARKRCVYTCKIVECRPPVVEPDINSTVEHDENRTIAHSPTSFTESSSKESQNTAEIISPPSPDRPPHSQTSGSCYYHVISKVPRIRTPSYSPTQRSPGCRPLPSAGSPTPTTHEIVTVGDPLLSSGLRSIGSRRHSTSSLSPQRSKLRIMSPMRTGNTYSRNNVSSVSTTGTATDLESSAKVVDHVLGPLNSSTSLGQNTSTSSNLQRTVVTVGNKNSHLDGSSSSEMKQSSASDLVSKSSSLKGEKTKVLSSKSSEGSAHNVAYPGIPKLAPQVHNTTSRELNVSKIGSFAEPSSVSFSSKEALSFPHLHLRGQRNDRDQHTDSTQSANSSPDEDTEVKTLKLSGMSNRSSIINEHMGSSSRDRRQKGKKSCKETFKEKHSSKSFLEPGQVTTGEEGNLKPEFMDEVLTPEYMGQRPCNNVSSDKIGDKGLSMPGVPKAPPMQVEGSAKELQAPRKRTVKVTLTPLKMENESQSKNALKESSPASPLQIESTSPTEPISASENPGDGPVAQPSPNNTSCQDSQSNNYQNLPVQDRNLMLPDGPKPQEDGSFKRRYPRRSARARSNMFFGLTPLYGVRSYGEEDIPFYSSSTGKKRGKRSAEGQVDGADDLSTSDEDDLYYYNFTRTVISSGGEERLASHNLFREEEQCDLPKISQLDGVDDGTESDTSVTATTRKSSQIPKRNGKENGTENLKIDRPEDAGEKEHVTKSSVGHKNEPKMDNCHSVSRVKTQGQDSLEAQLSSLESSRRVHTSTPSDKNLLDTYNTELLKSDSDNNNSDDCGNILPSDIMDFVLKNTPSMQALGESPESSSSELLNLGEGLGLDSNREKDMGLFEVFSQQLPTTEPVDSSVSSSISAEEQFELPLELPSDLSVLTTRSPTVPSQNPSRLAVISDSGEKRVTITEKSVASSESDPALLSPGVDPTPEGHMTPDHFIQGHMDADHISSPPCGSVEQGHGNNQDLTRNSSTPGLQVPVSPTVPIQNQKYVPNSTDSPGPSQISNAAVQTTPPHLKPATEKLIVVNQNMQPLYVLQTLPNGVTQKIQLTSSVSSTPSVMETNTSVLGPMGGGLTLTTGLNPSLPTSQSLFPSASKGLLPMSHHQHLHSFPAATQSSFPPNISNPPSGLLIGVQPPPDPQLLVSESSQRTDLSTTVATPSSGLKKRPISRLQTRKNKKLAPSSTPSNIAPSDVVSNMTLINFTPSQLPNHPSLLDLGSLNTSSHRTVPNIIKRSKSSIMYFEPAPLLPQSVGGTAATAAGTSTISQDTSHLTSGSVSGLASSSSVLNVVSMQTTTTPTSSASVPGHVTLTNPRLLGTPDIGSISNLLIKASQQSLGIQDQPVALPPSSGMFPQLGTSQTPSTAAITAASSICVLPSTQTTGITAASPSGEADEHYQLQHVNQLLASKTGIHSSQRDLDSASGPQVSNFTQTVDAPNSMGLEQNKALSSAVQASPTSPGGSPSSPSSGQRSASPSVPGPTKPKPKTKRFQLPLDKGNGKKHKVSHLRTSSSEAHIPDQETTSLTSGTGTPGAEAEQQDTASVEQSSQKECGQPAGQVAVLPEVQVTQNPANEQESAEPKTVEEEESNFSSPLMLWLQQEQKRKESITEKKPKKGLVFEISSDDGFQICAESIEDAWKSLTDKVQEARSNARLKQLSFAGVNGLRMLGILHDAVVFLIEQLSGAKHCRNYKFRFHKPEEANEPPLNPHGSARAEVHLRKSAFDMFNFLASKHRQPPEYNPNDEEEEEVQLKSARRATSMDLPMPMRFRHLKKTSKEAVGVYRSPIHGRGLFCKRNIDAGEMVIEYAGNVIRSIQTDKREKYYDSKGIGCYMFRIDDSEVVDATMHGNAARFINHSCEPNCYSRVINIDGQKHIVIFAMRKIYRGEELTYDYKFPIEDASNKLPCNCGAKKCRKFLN

What follows are molecules tested against Histone-lysine N-methyltransferase 2A (Homo sapiens) (UniProt Q03164) (assay: qHTS Fluorescence Polarization Assay for Inhibitors of MLL CXXC domain - DNA interaction). Conditions: MLL-CXXC / FITC-HOXA9 DNA fluorescence polarization; activity change, negative = inhibition: at 115 µM (top of the series).
Outline: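 Steps: dispense CXXC domain solution (7 uM) → pin compounds or unlabeled HOX-A9 DNA control → 5 min ambient → add FLSN-HOX-A9 solution (50 nM) → spin → 30 min ambient → fluorescence polarization. Tris pH 7.5/NaCl/DTT/BSA buffer.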
Potency is read from the fitted curve at half-maximal effect.

Row | SMILES | activity change, negative = inhibition | Potency
1 | Cc1ccc(N(C(=O)Cc2cccs2)C(C(=O)NC2CCCCC2)c2ccccn2)cc1C (stereo not given) | inactive: 15.4% | –
2 | COc1ccc(N2CCN(CCCNC(=O)CCC(=O)N3CCOc4ccc(Cl)cc43)CC2)cc1 | inactive: 4.99% | –
3 | Cc1cc(C)cc(S(=O)(=O)c2cnc3ccccc3n2)c1 | – | inconclusive: 8.91 µM [fluorescent, side channel, partial curve]
4 | CCN(CC)C(=O)CSc1nc(N)c(C#N)c(-c2cccs2)c1C#N | inactive: -4.42% | –
5 | C=CCOc1ccccc1/C=c1\sc2nc(=O)c(C)nn2c1=O | – | inconclusive: 3.55 µM [inhibitor, full curve, poor fit]
6 | NCCNc1ccc([N+](=O)[O-])cc1 | inactive: 19.7% | –
7 | CCOC(=O)c1csc(N/N=C2\CCc3ccccc32)n1 | – | inconclusive: 44.7 µM [fluorescent, side channel, partial curve]
8 | CCn1cc(/C=C/c2cc[n+](C)cc2)c2ccccc21 | – | inconclusive: 17.8 µM [fluorescent, side channel, partial curve]
9 | CCc1ccc(-c2cc(C(=O)N/N=C/c3ccccn3)[nH]n2)cc1 | inactive: 1.26% | –
10 | Cc1ccc(S(=O)(=O)Nc2ccc(C(=O)N3CCOCC3)cc2)cc1 | – | inconclusive: 35.5 µM [fluorescent, side channel, single point]
11 | COC(=O)c1ccc2c(c1)C(=O)/C(=C/c1ccc(O)cc1)O2 | – | inconclusive: 14.1 µM [fluorescent, side channel, full curve]
12 | COc1ccc(C(=O)c2sc(Nc3ccccc3)nc2N)cc1OC | – | inconclusive: 1.58 µM [fluorescent, side channel, full curve]
13 | CC(C)NC(=S)N/N=C/c1cc(Br)ccc1O | – | inconclusive: 14.1 µM [quencher, side channel, single point]
14 | CCc1ccccc1NC(=O)CSc1nc2n[nH]c(C)c2c(=N)n1-c1cccc(OC)c1 | inactive: 3.67% | –
15 | CCCS(=O)(=O)c1c(S(=O)(=O)CCC)c2ccc(C(N)=O)cn2c1C(=O)c1ccc(OC)cc1 | – | inconclusive: 1.12 µM [inhibitor, partial curve, poor fit]
16 | COc1cc(/C=N\NC(=O)CNC(=O)C(c2ccccc2)c2ccccc2)ccc1O | inactive: -4.32% | –
17 | O=C(c1cn(-c2ccccc2)nc1-c1ccccc1)N1CCN(c2ccccn2)CC1 | – | inconclusive: 15.8 µM [inhibitor, single point]
18 | O=C(CNS(=O)(=O)c1ccccc1)OCC(=O)c1ccccc1Cl | – | inconclusive: 15.8 µM [fluorescent, side channel, single point]
19 | CCC1=NN2C(=N)/C(=C\c3ccc(SCc4ccco4)o3)C(=O)N=C2S1 | – | inconclusive: 44.7 µM [fluorescent, side channel, single point]
20 | CN(C)C(=O)c1cc(C(=O)Cc2ccccc2)c[nH]1 | – | inconclusive: 8.91 µM [fluorescent, side channel, single point]

Row | SMILES | activity change, negative = inhibition | Potency
21 | CSc1nnc(NC(=O)c2nc(S(=O)(=O)Cc3ccc(C)cc3)ncc2Cl)s1 | – | inconclusive: 50.1 µM [inhibitor, single point]
22 | COC(=O)c1cccc(NC(=S)N2CCN(C)CC2)c1 | inactive: 1.34% | –
23 | COc1cc(/C=C2/C(=O)NN(c3cccc(C)c3)C2=O)cc([N+](=O)[O-])c1O | – | inconclusive: 70.8 µM [inhibitor, partial curve]
24 | COc1cc2c(cc1OC)C(NC(=O)C(F)(F)F)C/C2=N\O (stereo not given) | inactive: 3.35% | –
25 | COc1ccccc1C(=O)N1CCN(Cc2c[nH]c3ccccc23)CC1 | – | inconclusive: 63.1 µM [fluorescent, side channel, single point]
26 | C[C@](N)(Cc1ccc(O)c(O)c1)C(=O)O | – | inactive
27 | COc1c(Cl)cc(C(=O)Nc2ccccc2C(=O)O)cc1Cl | – | inconclusive: 35.5 µM [inhibitor, partial curve]
28 | C=CCn1c(SCC(=O)NC2CCS(=O)(=O)C2)nnc1-c1cc2c(s1)CCC(CC)C2 (stereo not given) | – | inconclusive: 11.2 µM [quencher, side channel, partial curve]
29 | O=C(/C=C/c1cn(CC(O)CN2CCOCC2)c2ccccc12)c1cccs1 (stereo not given) | – | inconclusive: 50.1 µM [fluorescent, side channel, single point]
30 | CC(=O)N1c2ccc(S(=O)(=O)N3CCCC(C(=O)N4CCCC(C)C4)C3)cc2CC1C (stereo not given) | – | inconclusive: 89.1 µM [quencher, side channel, single point]
31 | Cc1ccc(N2C(=O)C3Sc4[nH]c(=O)sc4C(c4ccccc4)C3C2=O)cc1 (stereo not given) | inactive: -3.33% | –
32 | CCC(CC)NCc1ccc2c(c1)c1ccccc1n2CC | – | inconclusive: 15.8 µM [inhibitor, single point]
33 | Cc1cccn2c(=O)c3cc(C(=O)NC4CCCC4)c(=N)n(C4CCCC4)c3nc12 | inactive: 14.1% | –
34 | O=C(c1ccc([N+](=O)[O-])s1)N1CCN(c2ccccc2)CC1 | – | inconclusive: 39.8 µM [inhibitor, single point]
35 | CC(C)N1CCc2c(sc(NC(=O)CN3C(=O)c4ccccc4C3=O)c2C(N)=O)C1 | – | inconclusive: 31.6 µM [fluorescent, side channel, partial curve]
36 | C/C(=N\NC(=O)C1(C)CC1(Br)Br)c1ccc([N+](=O)[O-])cc1 (stereo not given) | – | inconclusive: 14.1 µM [fluorescent, side channel, partial curve]
37 | Nc1cccc(N2C(=O)c3cccc4c(N)ccc(c34)C2=O)c1 | – | inconclusive: 10 µM [fluorescent, side channel, single point]
38 | O=C(CSC(=S)N1CCCC1)c1ccccc1 | – | inconclusive: 14.1 µM [fluorescent, side channel, single point]
39 | CN1CCN(C(=O)C2=C[C@H](c3ccc4c(c3)OCO4)C[C@H](OCc3ccc(CO)cc3)O2)CC1 | – | inconclusive: 39.8 µM [inhibitor, single point]
40 | COc1ccc(-c2csc(NC(=O)c3ccc(S(=O)(=O)N4CCc5ccccc5C4)cc3)n2)c(OC)c1 | inactive: 20% | –

Copied from the list.
Under Potency, `CC(=O)N1c2ccc(S(=O)(=O)N3CCCC(C(=O)N4CCCC(C)C4)C3)cc2CC1C` (stereo not given) reads inconclusive: 89.1 µM [quencher, side channel, single point]
Under activity change, negative = inhibition, `Cc1cccn2c(=O)c3cc(C(=O)NC4CCCC4)c(=N)n(C4CCCC4)c3nc12` reads inactive: 14.1%
